At least one compound was matched to its structure with a doubt left.
Experiment: Stability test of indacaterol maleate-glycopyrronium bromide compositions at different pH (Example 7)
Assay type: physicochemical
Conditions: 4 weeks at 60° C.
Description: The soft mist solutions of indatarol indacaterol maleate and glycopyrronium bromide at different pH were prepared as follows. Six 0.02 mM citric acid solution each 500 mL were prepared. pH was adjusted to 2.5, 3.0, 3.5, 4.0, 4.5, and 5.0 with 1 M (mol/L) of sodium hydroxide solution. Indacaterol maleate and glycopyrronium bromide were added. In order to improve the dissolution of indacaterol, all the drug solutions were ultrasonicated in a water bath at 30° C. for 20 min until no visible particles were found.
The drug solutions were placed in glass bottles and stability test was performed to determine the contents of indacaterol and glycopyrronium bromide and total impurities in the samples at the initial state and after 4 weeks at 60° C.

With CCc1cc2c(cc1CC)CC(NC[C@H](O)c1ccc(O)c3[nH]c(=O)ccc13)C2 [Indacaterol, indacaterol] the “pH at which the active ingredient is stable” value was 2.5-4.
